Where two headings read alike, the source gives them in different places. These are yes or no findings as the source states them, for the method shown. In cells and extracts the contact can be indirect. A yes stands for co-enrichment or nearness to the bait. Other partners may have been found.
Columns and labels:
Assay in all cases: affinity purification with mass spectrometry
SLC1A2 (human) [1] = biological target: SLC1A2 (human) (UniProt P43004)
SLC22A4 (human) = biological target: T1, SLC22A4 (human) (UniProt Q9H015)
T1 sequence: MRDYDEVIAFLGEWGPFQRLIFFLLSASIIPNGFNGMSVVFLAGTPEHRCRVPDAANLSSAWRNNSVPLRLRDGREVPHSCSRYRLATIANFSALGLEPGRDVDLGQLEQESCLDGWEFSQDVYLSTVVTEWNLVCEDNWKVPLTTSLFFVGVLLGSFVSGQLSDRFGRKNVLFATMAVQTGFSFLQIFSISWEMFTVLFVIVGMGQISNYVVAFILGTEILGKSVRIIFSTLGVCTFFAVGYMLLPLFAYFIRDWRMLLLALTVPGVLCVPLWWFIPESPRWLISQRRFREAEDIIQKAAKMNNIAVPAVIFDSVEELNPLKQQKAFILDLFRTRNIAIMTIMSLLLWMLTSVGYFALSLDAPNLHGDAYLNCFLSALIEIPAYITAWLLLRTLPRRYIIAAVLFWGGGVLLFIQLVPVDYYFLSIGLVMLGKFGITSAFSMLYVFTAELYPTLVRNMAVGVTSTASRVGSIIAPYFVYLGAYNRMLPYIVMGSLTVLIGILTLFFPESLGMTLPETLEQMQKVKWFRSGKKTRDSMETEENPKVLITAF

By UniProt entry, the sequences of proteins in these tests, tags left out.
UniProt Q9HC98: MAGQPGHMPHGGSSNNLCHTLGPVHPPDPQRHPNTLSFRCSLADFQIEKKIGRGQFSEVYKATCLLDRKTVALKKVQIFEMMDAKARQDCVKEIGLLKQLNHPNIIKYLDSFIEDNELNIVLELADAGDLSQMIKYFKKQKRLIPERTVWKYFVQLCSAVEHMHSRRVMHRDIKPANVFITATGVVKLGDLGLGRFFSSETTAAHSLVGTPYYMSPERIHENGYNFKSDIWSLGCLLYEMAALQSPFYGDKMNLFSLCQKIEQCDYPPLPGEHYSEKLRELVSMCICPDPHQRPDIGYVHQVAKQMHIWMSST
UniProt Q9GZM5: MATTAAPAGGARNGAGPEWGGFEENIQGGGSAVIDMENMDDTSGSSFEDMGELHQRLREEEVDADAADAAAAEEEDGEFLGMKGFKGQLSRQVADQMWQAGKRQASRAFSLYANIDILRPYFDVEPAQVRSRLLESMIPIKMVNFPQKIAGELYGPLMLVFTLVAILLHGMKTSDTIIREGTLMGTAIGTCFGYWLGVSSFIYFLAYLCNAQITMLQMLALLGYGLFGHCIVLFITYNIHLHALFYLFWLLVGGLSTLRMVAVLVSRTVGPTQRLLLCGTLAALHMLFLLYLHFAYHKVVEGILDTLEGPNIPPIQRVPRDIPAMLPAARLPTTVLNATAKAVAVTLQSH

SLC6A8 (human) = biological target: T2, SLC6A8 (human) (UniProt P48029)
T2 sequence: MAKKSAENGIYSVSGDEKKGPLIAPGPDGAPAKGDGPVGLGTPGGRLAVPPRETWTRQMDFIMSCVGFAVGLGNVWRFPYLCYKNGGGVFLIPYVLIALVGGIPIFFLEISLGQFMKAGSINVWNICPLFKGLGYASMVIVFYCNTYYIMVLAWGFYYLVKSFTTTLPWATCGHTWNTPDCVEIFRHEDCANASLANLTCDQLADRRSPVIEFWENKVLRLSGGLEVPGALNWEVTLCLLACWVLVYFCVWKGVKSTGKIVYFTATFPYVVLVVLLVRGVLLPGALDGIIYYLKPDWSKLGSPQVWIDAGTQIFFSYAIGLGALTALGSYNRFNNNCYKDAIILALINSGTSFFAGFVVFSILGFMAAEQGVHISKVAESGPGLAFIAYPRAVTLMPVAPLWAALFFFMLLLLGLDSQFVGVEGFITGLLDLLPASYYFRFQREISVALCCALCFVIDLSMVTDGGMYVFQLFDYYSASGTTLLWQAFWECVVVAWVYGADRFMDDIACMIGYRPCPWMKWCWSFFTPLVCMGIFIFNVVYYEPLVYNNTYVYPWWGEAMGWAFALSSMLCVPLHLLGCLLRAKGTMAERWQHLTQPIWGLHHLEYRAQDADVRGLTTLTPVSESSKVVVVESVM

SLC1A2 (human) [2] = biological target: SLC1A2 (human) (UniProt P43004); remark: listed apart in the source
SLC16A1 (human) = biological target: T3, SLC16A1 (human) (UniProt P53985)
T3 sequence: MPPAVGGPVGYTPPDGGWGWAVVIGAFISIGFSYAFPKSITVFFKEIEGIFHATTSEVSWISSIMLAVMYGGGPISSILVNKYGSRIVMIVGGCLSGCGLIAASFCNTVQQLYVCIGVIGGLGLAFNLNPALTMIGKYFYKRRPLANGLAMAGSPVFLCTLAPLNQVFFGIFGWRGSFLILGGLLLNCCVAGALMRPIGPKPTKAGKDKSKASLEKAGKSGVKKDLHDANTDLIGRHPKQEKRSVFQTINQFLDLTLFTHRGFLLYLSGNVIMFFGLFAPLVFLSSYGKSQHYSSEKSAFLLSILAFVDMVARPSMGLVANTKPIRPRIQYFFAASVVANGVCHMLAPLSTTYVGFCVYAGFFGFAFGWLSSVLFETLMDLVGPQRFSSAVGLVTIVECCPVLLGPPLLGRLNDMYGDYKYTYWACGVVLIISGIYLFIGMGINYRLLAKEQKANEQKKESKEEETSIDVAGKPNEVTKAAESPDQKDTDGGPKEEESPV

Molecule: NEK6 (from UniProt Q9HC98 1-313)
- binding (SLC1A2 (human) [1]): binds

Molecule: YIPF3 (from UniProt Q9GZM5 1-350)
- binding (SLC22A4 (human)): binds

B1: ILVBL (protein, UniProt A1L0T0 1-632)
chain: METPAAAAPAGSLFPSFLLLACGTLVAALLGAAHRLGLFYQLLHKVDKASVRHGGENVAAVLRAHGVRFIFTLVGGHISPLLVACEKLGIRVVDTRHEVTAVFAADAMARLSGTVGVAAVTAGPGLTNTVTAVKNAQMAQSPILLLGGAASTLLQNRGALQAVDQLSLFRPLCKFCVSVRRVRDIVPTLRAAMAAAQSGTPGPVFVELPVDVLYPYFMVQKEMVPAKPPKGLVGRVVSWYLENYLANLFAGAWEPQPEGPLPLDIPQASPQQVQRCVEILSRAKRPLMVLGSQALLTPTSADKLRAAVETLGVPCFLGGMARGLLGRNHPLHIRENRSAALKKADVIVLAGTVCDFRLSYGRVLSHSSKIIIVNRNREEMLLNSDIFWKPQEAVQGDVGSFVLKLVEGLQGQTWAPDWVEELREADRQKEQTFREKAAMPVAQHLNPVQVLQLVEETLPDNSILVVDGGDFVGTAAHLVQPRGPLRWLDPGAFGTLGVGAGFALGAKLCRPDAEVWCLFGDGAFGYSLIEFDTFVRHKIPVMALVGNDAGWTQISREQVPSLGSNVACGLAYTDYHKAAMGLGARGLLLSRENEDQVVKVLHDAQQQCRDGHPVVVNILIGRTDFRDGSIAV
- binding (SLC6A8 (human)): binds

B2: GDPD1 (protein, UniProt Q8N9F7 1-314)
chain: MSSTAAFYLLSTLGGYLVTSFLLLKYPTLLHQRKKQRFLSKHISHRGGAGENLENTMAAFQHAVKIGTDMLELDCHITKDEQVVVSHDENLKRATGVNVNISDLKYCELPPYLGKLDVSFQRACQCEGKDNRIPLLKEVFEAFPNTPINIDIKVNNNVLIKKVSELVKRYNREHLTVWGNANYEIVEKCYKENSDIPILFSLQRVLLILGLFFTGLLPFVPIREQFFEIPMPSIILKLKEPHTMSRSQKFLIWLSDLLLMRKALFDHLTARGIQVYIWVLNEEQEYKRAFDLGATGVMTDYPTKLRDFLHNFSA
- binding (SLC1A2 (human) [2]): binds

B3: Embigin (protein, UniProt Q6PCB8 33-327)
chain: DGSAPDSPFTSPPLREEIMANNFSLESHNISLTEHSSMPVEKNITLERPSNVNLTCQFTTSGDLNAVNVTWKKDGEQLENNYLVSATGSTLYTQYRFTIINSKQMGSYSCFFREEKEQRGTFNFKVPELHGKNKPLISYVGDSTVLTCKCQNCFPLNWTWYSSNGSVKVPVGVQMNKYVINGTYANETKLKITQLLEEDGESYWCRALFQLGESEEHIELVVLSYLVPLKPFLVIVAEVILLVATILLCEKYTQKKKKHSDEGKEFEQIEQLKSDDSNGIENNVPRHRKNESLGQ
- binding (SLC16A1 (human)): binds
